Measured values reported in paper PMC8903684.

Molecular target: T1, Transmembrane protein 43 (TMEM43), endogenous (human (endogenous in MIAPaCa-2 and SW1990)) (UniProt Q9BTV4)
T1 sequence: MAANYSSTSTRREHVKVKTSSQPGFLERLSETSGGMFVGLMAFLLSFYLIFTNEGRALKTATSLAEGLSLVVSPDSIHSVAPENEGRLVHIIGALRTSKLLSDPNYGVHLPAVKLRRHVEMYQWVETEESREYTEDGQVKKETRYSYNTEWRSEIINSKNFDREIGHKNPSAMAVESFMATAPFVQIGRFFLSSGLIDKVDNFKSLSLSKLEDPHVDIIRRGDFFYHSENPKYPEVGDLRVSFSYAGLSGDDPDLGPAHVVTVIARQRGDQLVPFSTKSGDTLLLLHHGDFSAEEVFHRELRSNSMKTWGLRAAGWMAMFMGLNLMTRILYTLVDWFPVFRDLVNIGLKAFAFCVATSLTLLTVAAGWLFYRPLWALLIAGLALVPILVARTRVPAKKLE
Assay: affinity purification with mass spectrometry; co-IP of TMEM43 from MIAPaCa-2 cell lysate (RIPA lysis buffer, 200 ug protein), washed five times with PBS, SDS-PAGE, mass spectrometry

B1: Pre-mRNA processing factor 3 (PRPF3), endogenous (protein, UniProt O43395 1-683)
chain: MALSKRELDELKPWIEKTVKRVLGFSEPTVVTAALNCVGKGMDKKKAADHLKPFLDDSTLRFVDKLFEAVEEGRSSRHSKSSSDRSRKRELKEVFGDDSEISKESSGVKKRRIPRFEEVEEEPEVIPGPPSESPGMLTKLQIKQMMEAATRQIEERKKQLSFISPPTPQPKTPSSSQPERLPIGNTIQPSQAATFMNDAIEKARKAAELQARIQAQLALKPGLIGNANMVGLANLHAMGIAPPKVELKDQTKPTPLILDEQGRTVDATGKEIELTHRMPTLKANIRAVKREQFKQQLKEKPSEDMESNTFFDPRVSIAPSQRQRRTFKFHDKGKFEKIAQRLRTKAQLEKLQAEISQAARKTGIHTSTRLALIAPKKELKEGDIPEIEWWDSYIIPNGFDLTEENPKREDYFGITNLVEHPAQLNPPVDNDTPVTLGVYLTKKEQKKLRRQTRREAQKELQEKVRLGLMPPPEPKVRISNLMRVLGTEAVQDPTKVEAHVRAQMAKRQKAHEEANAARKLTAEQRKVKKIKKLKEDISQGVHISVYRVRNLSNPAKKFKIEANAGQLYLTGVVVLHKDVNVVVVEGGPKAQKKFKRLMLHRIKWDEQTSNTKGDDDEESDEEAVKKTNKCVLVWEGTAKDRSFGEMKFKQCPTENMAREHFKKHGAEHYWDLALSESVLESTD
binding: binds

No constants are given. Whether binding was seen depends on the method and setting. Binding seen in cells or lysates may run through a third protein. Here binding means that the protein was enriched with, or labelled near, the bait; the list need not be complete.
